Results published in PMC13202174.
Results are given in words; binding and its absence hold for the method and conditions named. In cells and extracts the contact can be indirect. Some results given as binding are weak or reduced against the parent protein; the word gives no strength.

Protein sequences, listed by entry. Tags and fused reporters are not part of them.
UniProt P12004: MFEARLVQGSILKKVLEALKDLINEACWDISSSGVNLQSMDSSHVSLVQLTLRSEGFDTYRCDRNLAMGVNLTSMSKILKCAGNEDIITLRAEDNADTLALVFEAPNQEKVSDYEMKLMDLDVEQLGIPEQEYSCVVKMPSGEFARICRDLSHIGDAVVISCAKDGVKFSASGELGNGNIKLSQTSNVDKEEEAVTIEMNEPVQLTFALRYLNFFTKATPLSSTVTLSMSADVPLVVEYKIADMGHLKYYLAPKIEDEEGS

Target: Flag-PCNA (UniProt P12004)
Experiment: co-IP; lysate of transfected HEK293/293T cells on anti-FLAG M2 agarose beads, 4°C for 4 h, eluted with 3 x Flag peptide, immunoblot; cells treated with or without 10 μM FEN1i (LNT-1) for 16 h

binding: binds
B1: XPF (protein, UniProt Q92889 1-916)
chain: MESGQPARRIAMAPLLEYERQLVLELLDTDGLVVCARGLGADRLLYHFLQLHCHPACLVLVLNTQPAEEEYFINQLKIEGVEHLPRRVTNEITSNSRYEVYTQGGVIFATSRILVVDFLTDRIPSDLITGILVYRAHRIIESCQEAFILRLFRQKNKRGFIKAFTDNAVAFDTGFCHVERVMRNLFVRKLYLWPRFHVAVNSFLEQHKPEVVEIHVSMTPTMLAIQTAILDILNACLKELKCHNPSLEVEDLSLENAIGKPFDKTIRHYLDPLWHQLGAKTKSLVQDLKILRTLLQYLSQYDCVTFLNLLESLRATEKAFGQNSGWLFLDSSTSMFINARARVYHLPDAKMSKKEKISEKMEIKEGEETKKELVLESNPKWEALTEVLKEIEAENKESEALGGPGQVLICASDDRTCSQLRDYITLGAEAFLLRLYRKTFEKDSKAEEVWMKFRKEDSSKRIRKSHKRPKDPQNKERASTKERTLKKKKRKLTLTQMVGKPEELEEEGDVEEGYRREISSSPESCPEEIKHEEFDVNLSSDAAFGILKEPLTIIHPLLGCSDPYALTRVLHEVEPRYVVLYDAELTFVRQLEIYRASRPGKPLRVYFLIYGGSTEEQRYLTALRKEKEAFEKLIREKASMVVPEEREGRDETNLDLVRGTASADVSTDTRKAGGQEQNGTQQSIVVDMREFRSELPSLIHRRGIDIEPVTLEVGDYILTPEMCVERKSISDLIGSLNNGRLYSQCISMSRYYKRPVLLIEFDPSKPFSLTSRGALFQEISSNDISSKLTLLTLHFPRLRILWCPSPHATAELFEELKQSKPQPDAATALAITADSETLPESEKYNPGPQDFLLKMPGVNAKNCRSLMHHVKNIAELAALSQDELTSILGNAANAKQLYDFIHTSFAEVVSKGKGKK
